Measurements reported in PubChem BioAssay AID493246 (Drosophila RNAi Screening Center, 2011).

- Purpose: 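Identify essential fly genes by loss of cell viability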 (primary screen)
- Cell system: Drosophila Kc and S2R+ cells
- Reagent: long dsRNA against Drosophila genes
- Read-out: 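Cell number per well after knock-down, printed as raw plate values; calls were based on per-plate z-scores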
- Scale: Kc cell number and S2R+ cell number: higher = more cells remaining
- Hit rule: 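Counted as a hit if cell number falls by a z-score of at least 3 within its plate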
In all, the deposit lists about 21,000 reagents; shown is a random part of those that have a named target and a result. In the full data, 429 (2%) were called active. 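Values are raw and not normalised between plates; calls rest on per-plate z-scores that were not deposited.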 Reagents against one gene are numbered here. No sequences are given here. Not stated in the record: the amount of reagent, the time to read-out.

Rcd5 (Reduction in Cnn dots 5) | Kc cell number, rep 1 = 1.23e6; Kc cell number, rep 2 = 1.29e6; S2R+ cell number, rep 1 = 1.05e6; S2R+ cell number, rep 2 = 1.09e6; Call = inactive
trv (trivet) #1 | Kc cell number, rep 1 = 1.02e6; Kc cell number, rep 2 = 1.40e6; S2R+ cell number, rep 1 = 1.08e6; S2R+ cell number, rep 2 = 1.06e6; Call = inactive
trv (trivet) #2 | Kc cell number, rep 1 = 1.41e6; Kc cell number, rep 2 = 1.49e6; S2R+ cell number, rep 1 = 9.38e5; S2R+ cell number, rep 2 = 1.05e6; Call = inactive
trv (trivet) #3 | Kc cell number, rep 1 = 1.41e6; Kc cell number, rep 2 = 1.43e6; S2R+ cell number, rep 1 = 9.57e5; S2R+ cell number, rep 2 = 1.08e6; Call = inactive
trv (trivet) #4 | Kc cell number, rep 1 = 1.50e6; Kc cell number, rep 2 = 1.51e6; S2R+ cell number, rep 1 = 9.79e5; S2R+ cell number, rep 2 = 1.11e6; Call = inactive
Fadd (Fas-associated death domain) | Kc cell number, rep 1 = 1.32e6; Kc cell number, rep 2 = 1.30e6; S2R+ cell number, rep 1 = 1.00e6; S2R+ cell number, rep 2 = 1.18e6; Call = inactive
CG15456 | Kc cell number, rep 1 = 1.46e6; Kc cell number, rep 2 = 1.50e6; S2R+ cell number, rep 1 = 1.01e6; S2R+ cell number, rep 2 = 1.09e6; Call = inactive
CG31106 | Kc cell number, rep 1 = 1.46e6; Kc cell number, rep 2 = 1.45e6; S2R+ cell number, rep 1 = 9.74e5; S2R+ cell number, rep 2 = 1.04e6; Call = inactive
sick (sickie) #1 | Kc cell number, rep 1 = 1.69e6; Kc cell number, rep 2 = 1.81e6; S2R+ cell number, rep 1 = 1.04e6; S2R+ cell number, rep 2 = 2.25e5; Call = inactive
sick (sickie) #2 | Kc cell number, rep 1 = 1.64e6; Kc cell number, rep 2 = 1.63e6; S2R+ cell number, rep 1 = 1.28e6; S2R+ cell number, rep 2 = 3.39e5; Call = inactive
sick (sickie) #3 | Kc cell number, rep 1 = 1.54e6; Kc cell number, rep 2 = 1.58e6; S2R+ cell number, rep 1 = 1.30e6; S2R+ cell number, rep 2 = 2.86e5; Call = inactive
sick (sickie) #4 | Kc cell number, rep 1 = 1.48e6; Kc cell number, rep 2 = 1.66e6; S2R+ cell number, rep 1 = 1.22e6; S2R+ cell number, rep 2 = 3.36e5; Call = inactive
sick (sickie) #5 | Kc cell number, rep 1 = 1.66e6; Kc cell number, rep 2 = 1.74e6; S2R+ cell number, rep 1 = 1.45e6; S2R+ cell number, rep 2 = 3.61e5; Call = inactive
alt (aluminum tubes) | Kc cell number, rep 1 = 1.73e6; Kc cell number, rep 2 = 1.91e6; S2R+ cell number, rep 1 = 1.19e6; S2R+ cell number, rep 2 = 1.18e6; Call = inactive

Only “Kc cell number, rep 2”, for 2 of the entries above:
CG15456	1.50e6
CG31106	1.45e6
